Measured values published in patent US20220401404A1, “Co-Administration Therapy to Prevent Neurodegeneration and Enhance Neuroprotection” (THE REGENTS OF THE UNIVERSITY OF CALIFORNIA, priority 2019, published 2022).
For at least one compound, name, drawing or mass did not settle the structure.

How the values were obtained:
[1] = system: dopaminergic neurons in substantia nigra and dopaminergic neurites in striatum; assay: MPTP mouse model of Parkinson's disease (TH staining of substantia nigra and striatum); type: in vivo, C57/BL6 mice; details: 14 days after 5-day MPTP 30 mg/kg
[2] = system: primary astrocytes derived from PGC-1α heterozygous KO (PGC-1α+/−) mice; assay: LPS-induced inflammation in primary astrocytes from PGC-1α heterozygous KO mice (RT-PCR gene expression); type: cell-based, mouse; details: fenofibrate overnight, then LPS 1 hour
Procedure: (§1) Total RNA was isolated and IL-1β (A, D), TNF-α (B, E) and PGC-1α (C, F) gene expression were determined by RT-PCR.
(§2) Primary astrocytes from postnatal heterozygous mice were isolated and cultured and wild type mice were obtained by breeding these heterozygous knockout mice. […] Total RNA was isolated, and gene expression of pro-inflammatory cytokines, IL-1β and TNF-α, was determined by RT-PCR.

[3] = system: primary astrocytes derived from PGC-1α WT (PGC-1α+/+) mice; assay: LPS-induced inflammation in primary astrocytes from PGC-1α WT mice (RT-PCR gene expression); type: cell-based, mouse; details: fenofibrate 20 μM overnight, then LPS 1 hour
Procedure: as §1, §2

[4] = system: BV2 cells; assay: LPS-induced IL-1β and PGC-1α gene expression in BV2 cells (qRT-PCR); type: cell-based; details: 5, 10, 20 μM, 18 hours, then 0.1 ng/ml LPS 1 hour
Description: FIG. 4. […] Then total RNA was isolated for IL-1β gene qRT-PCR analysis.
FIGS. 7A and 7B. […] Cell lysates were collected, and RNA was isolated for IL-1β (FIG. 7A) and PGC-1α (FIG. 7B) gene expression by RT-PCR.
Total BV2 cell RNA was extracted for IL-1β gene expression via qRT-PCR analysis.
Cell lysates were collected for determination of IL-1β and PGC-1α gene expression via qRT-PCR.

SMILES	TH positive neurons in the substantia nigra after MPTP ([1]; fenofibrate 150 and 200 mg/kg i.p.)	TH optical density in the striatum after MPTP ([1]; fenofibrate 150 and 200 mg/kg)	effect on LPS-induced TNF-α expression [2]	effect on LPS-induced TNF-α expression [3]	effect on PGC-1α expression [3]	effect on LPS-elevated IL-1β levels [4]
CC(C)OC(=O)C(C)(C)Oc1ccc(C(=O)c2ccc(Cl)cc2)cc1 [Fenofibrate]	prevented MPTP-induced loss of nigral neurons	prevented MPTP-induced loss of striatal neurites	failed to alter	failed to alter	failed to alter	–
CC(C)(Oc1ccc(C(=O)c2ccc(Cl)cc2)cc1)C(=O)O [Fenofibric acid]	–	–	–	–	–	failed to reduce the elevated IL-1β levels
